Assay results from patent US20180214548A1.
These are yes or no findings as the source states them, for the method shown. Some binding calls cover weakened binding; strength is not graded here.

Molecular target: cyno PD-1, full length, on CHO-K1 cells (cyno monkey) (UniProt B0LAJ3)
Assay: flow cytometry on activated cyno monkey PBMCs (MFI)

binding: binds
B1: fully human anti-PD-1 antibody 76G5B3 (antibody, human IgG4 S228P, kappa, V domains shown)
VH: QVQLVESGGGVVQPGRSLRLSCAASGFTFSDYGFHWVRQAPGKGLEWVAVIWYDGSNEYYTDSVKGRFTISRDNSKNTLYLQMNSLRAEDTAMYFCVVNPFDYWGQGTLVTVSS
VL: DIQMTQSPSSLSAFVGDRVTITCRASQGINHYLAWYQQKPGKAPNLLILAASTLLSGVPSRFGGRGSGTDFTLIISSLQPEDVATYYCQKYDSAPYTFGQGTKLEIKR
